Test results from publication PMC509406.
Results are given in words; binding and its absence hold for the method and conditions named. Binding seen in cells or lysates may run through a third protein. A yes stands for co-enrichment or nearness to the bait. Other partners may have been found.

Biological target: T1, wild-type emerin (residues 1–222), the full nucleoplasmic domain (human) (UniProt P50402)
T1 sequence: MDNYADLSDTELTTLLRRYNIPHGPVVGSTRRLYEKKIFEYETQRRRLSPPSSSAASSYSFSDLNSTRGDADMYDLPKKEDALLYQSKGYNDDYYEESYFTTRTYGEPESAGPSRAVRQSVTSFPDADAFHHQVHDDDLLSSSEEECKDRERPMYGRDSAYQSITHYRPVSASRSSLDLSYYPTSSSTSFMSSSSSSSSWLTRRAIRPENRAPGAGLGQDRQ
Assay: affinity purification with mass spectrometry; emerin 1–222 coupled to Affigel-15 beads (0.5 mg/ml), 50 mg HeLa-S3 nuclear lysate proteins, 50 mM HEPES, 250 mM NaCl, 0.1% Triton X-100, 4 h at 4 °C; eluted with SDS sample buffer; MALDI-TOF and Western blotting; BSA beads as negative control; only the target purified

nuclear-enriched αII-spectrin (from UniProt Q13813 1-2472)
binding: binds
